Data from US20250223600.

Chains of the proteins cited; added tags and fusions are not shown. A line that says so, or that is headed by a name, gives the form on record, which may keep a tag or linker.
Insulin receptor (INSR), extracellular domain on cells (Homo sapiens), one chain, as listed by the source, chain 2 of 2: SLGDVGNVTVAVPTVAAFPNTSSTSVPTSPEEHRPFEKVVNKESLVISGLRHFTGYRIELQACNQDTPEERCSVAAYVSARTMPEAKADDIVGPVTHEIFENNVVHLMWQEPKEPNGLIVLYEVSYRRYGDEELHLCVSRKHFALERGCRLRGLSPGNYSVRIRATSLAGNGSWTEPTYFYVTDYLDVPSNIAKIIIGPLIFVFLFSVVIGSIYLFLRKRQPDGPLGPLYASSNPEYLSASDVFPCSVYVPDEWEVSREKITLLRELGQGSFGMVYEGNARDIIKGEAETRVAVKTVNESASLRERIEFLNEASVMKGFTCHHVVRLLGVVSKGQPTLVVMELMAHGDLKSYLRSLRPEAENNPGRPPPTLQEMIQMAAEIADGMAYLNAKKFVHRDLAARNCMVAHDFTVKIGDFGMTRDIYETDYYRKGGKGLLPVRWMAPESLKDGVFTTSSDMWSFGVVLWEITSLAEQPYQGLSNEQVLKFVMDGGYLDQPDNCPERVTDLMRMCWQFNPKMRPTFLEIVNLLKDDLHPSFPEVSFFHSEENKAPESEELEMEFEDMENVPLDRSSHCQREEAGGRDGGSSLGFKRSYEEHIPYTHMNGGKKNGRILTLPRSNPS

Tested on: Insulin receptor (INSR), extracellular domain on cells (Homo sapiens)
Test: activity in cells
Settings: protein on the cell surface
[1] = as IR-A62 monomer in both arms, pY1150 similar to monomer, dimer not formed on native gel (p151), cell line per Example 2, folded or branched DNA, variant of IR-A62 ms monomer (A62-M), dose not given here
[2] = as IR-A62 monomer in both arms, pY1150 higher than monomer, folded or branched DNA, variant of IR-A62 ms monomer (A62-M), dose not given here
[3] = as IR-A62 monomer, unmodified TT + 20 nt linker, 3'-idT, 100 nM, single strand alone, pY1150 lower than LD1+LD2 dimer, single-stranded DNA, variant of IR-A62 ms monomer (A62-M)
[4] = as IR-A62 monomer in both arms, T spacer 2'-OMe, pY1150 higher than monomer, single-stranded DNA, variant of IR-A62 ms monomer (A62-M), dose not given here

Sequence: CATTACGCATGAGTCTAGATCCGTTTATTACAGC / CATTACGCATGAGTCTAGATCCGTTTGCTGTAAT [A62 D-1+D-2 (8 bp)]
- functional effect of the aptamer [1]: less active

Sequence: CATTACGCATGAGTCTAGATCCGTTTATTACAGCTT / CATTACGCATGAGTCTAGATCCGTTTAAGCTGTAAT [A62 D-1+D-2 (10 bp)]
- functional effect of the aptamer [2]: active

Sequence: CATTACGCATGAGTCTAGATCCGTTTATTACAGCTTGC / CATTACGCATGAGTCTAGATCCGTTTGCAAGCTGTAAT [A62 D-1+D-2 (12 bp)]
- functional effect of the aptamer (as IR-A62 monomer in both arms, 20-500 nM, pY1150, pAKT and glucose uptake higher than monomer, 100 nM dimer similar to 500 nM monomer, protein details: human IR expressed in L6 cells (hIR-L6), folded or branched DNA, variant of IR-A62 ms monomer (A62-M)): active
- functional effect of the aptamer [2]: active

Sequence: CATTACGCATGAGTCTAGATCCGTTTATTACAGCTTGCTA / CATTACGCATGAGTCTAGATCCGTTTTAGCAAGCTGTAAT [A62 D-1+D-2 (14 bp)]
- functional effect of the aptamer [2]: active

Sequence: CATTACGCATGAGTCTAGATCCGTTTATTACAGCTTGCTACA / CATTACGCATGAGTCTAGATCCGTTTTGTAGCAAGCTGTAAT [A62 D-1+D-2 (16 bp)]
- functional effect of the aptamer [2]: active

Sequence: CATTACGCATGAGTCTAGATCCGTTTATTACAGCTTGCTACACG / CATTACGCATGAGTCTAGATCCGTTTCGTGTAGCAAGCTGTAAT [A62 D-1+D-2 (18 bp)]
- functional effect of the aptamer [2]: active

Sequence: CATTACGCATGAGTCTAGATCCGTTTATTACAGCTTGCTACACGAA / CATTACGCATGAGTCTAGATCCGTTTTTCGTGTAGCAAGCTGTAAT [A62-D (2'OMe)]
- functional effect of the aptamer (as IR-A62 monomer in both arms, linkers all 2'-OMe, 3'-idT, pY1150, pY1150/Y1151 and pAKT similar to insulin, folded or branched DNA, variant of IR-A62 dimer LD1+LD2 (20 bp), dose not given here): active

Sequence: CATTACGCATGAGTCTAGATCCGTTTATTACAGCTTGCTACACGAA / CATTACGCATGAGTCTAGATCCGTTTTTCGTGTAGCAAGCTGTAAT [IR-A62 dimer LD1+LD2 (20 bp)]
- functional effect of the aptamer (as IR-A62 monomer in both aptamer arms, 100 nM in Krebs-Ringer HEPES, pY1150 significantly above monomer, also Y960, Y1146, Y1151, Y1316, Y1322, IRS Y896 and AKT, also Ex. 6-7, folded or branched DNA, variant of IR-A62 ms monomer (A62-M)): active

Sequence: CATTACGCATGAGTCTAGATCCGTTTATTACAGCTTGCTACACGAA [A62-LD1 (2'OMe)]
- functional effect of the aptamer (as IR-A62 monomer, linker all 2'-OMe, 3'-idT, no or very low pY1150, pY1150/Y1151, pAKT alone, single-stranded DNA, variant of IR-A62 ms-LD1, dose not given here): less active

Sequence: CATTACGCATGAGTCTAGATCCGTTTATTACAGCTTGCTACACGAA [IR-A62 ms-LD1]
- functional effect of the aptamer [3]: less active

Sequence: CATTACGCATGAGTCTAGATCCGTTTGTGGCC / CATTACGCATGAGTCTAGATCCGTTTGGCCAC [A62 D-1+D-2 (6 bp)]
- functional effect of the aptamer [1]: less active

Sequence: CATTACGCATGAGTCTAGATCCGTTTTTCATTACGCATGAGTCTAGATCCGT [A62 SSD (HEG1)]
- functional effect of the aptamer (as IR-A62 monomer in both arms, spacer 2'-OMe TT-(Spacer 18)1-TT, pY1150 higher than monomer, single-stranded DNA, variant of IR-A62 ms monomer (A62-M), dose not given here): active

Sequence: CATTACGCATGAGTCTAGATCCGTTTTTCATTACGCATGAGTCTAGATCCGT [A62 SSD (HEG2)]
- functional effect of the aptamer (as IR-A62 monomer in both arms, spacer 2'-OMe TT-(Spacer 18)2-TT, pY1150 higher than monomer, single-stranded DNA, variant of IR-A62 ms monomer (A62-M), dose not given here): active

Sequence: CATTACGCATGAGTCTAGATCCGTTTTTCATTACGCATGAGTCTAGATCCGT [A62 SSD (HEG3)]
- functional effect of the aptamer (as IR-A62 monomer in both arms, spacer 2'-OMe TT-(Spacer 18)3-TT, pY1150 higher than monomer, single-stranded DNA, variant of IR-A62 ms monomer (A62-M), dose not given here): active

Sequence: CATTACGCATGAGTCTAGATCCGTTTTTCATTACGCATGAGTCTAGATCCGT [A62 SSD (HEG4)]
- functional effect of the aptamer (as IR-A62 monomer in both arms, spacer 2'-OMe TT-(Spacer 18)4-TT, pY1150 higher than monomer, single-stranded DNA, variant of IR-A62 ms monomer (A62-M), dose not given here): active

Sequence: CATTACGCATGAGTCTAGATCCGTTTTTCATTACGCATGAGTCTAGATCCGT [A62 SSD (HEG5)]
- functional effect of the aptamer (as IR-A62 monomer in both arms, spacer 2'-OMe TT-(Spacer 18)5-TT, pY1150 higher than monomer, single-stranded DNA, variant of IR-A62 ms monomer (A62-M), dose not given here): active

Sequence: CATTACGCATGAGTCTAGATCCGTTTTTCATTACGCATGAGTCTAGATCCGT [A62 SSD (HEG6)]
- functional effect of the aptamer (as IR-A62 monomer in both arms, spacer 2'-OMe TT-(Spacer 18)6-TT, pY1150 higher than monomer, single-stranded DNA, variant of IR-A62 ms monomer (A62-M), dose not given here): active

Sequence: CATTACGCATGAGTCTAGATCCGTTTTTCGTGTAGCAAGCTGTAAT [IR-A62 ms-LD2]
- functional effect of the aptamer [3]: less active

Sequence: CATTACGCATGAGTCTAGATCCGTTTTTTTTTCATTACGCATGAGTCTAGATCCGT [A62 SSD (4T)]
- functional effect of the aptamer (as IR-A62 monomer in both arms, T spacer 2'-OMe, pY1150 higher than monomer, cell line per Example 2, single-stranded DNA, variant of IR-A62 ms monomer (A62-M), dose not given …): active

Sequence: CATTACGCATGAGTCTAGATCCGTTTTTTTTTTTCATTACGCATGAGTCTAGATCCGT [A62 SSD (6T)]
- functional effect of the aptamer [4]: active

Sequence: CATTACGCATGAGTCTAGATCCGTTTTTTTTTTTTTCATTACGCATGAGTCTAGATCCGT [A62 SSD (8T)]
- functional effect of the aptamer [4]: active

Sequence: CATTACGCATGAGTCTAGATCCGTTTTTTTTTTTTTTTCATTACGCATGAGTCTAGATCCGT [A62 SSD (10T)]
- functional effect of the aptamer [4]: active

Sequence: CATTACGCATGAGTCTAGATCCGTTTTTTTTTTTTTTTTTTTTCATTACGCATGAGTCTAGATCCGT [A62 SSD (15T)]
- functional effect of the aptamer [4]: active

The comparison behind a weaker result is the experiment's own reference, which may not be listed here. The exact form of at least one protein or probe is not confirmed.
